Results are given in words; binding and its absence hold for the method and conditions named. Some binding calls cover weakened binding; strength is not graded here. One block for each binder: values may come before it.
Key:
[1] = biological target: hnRNPDL-2 D259H (LGMDD3-associated variant) (human) (UniProt O14979); experiment: ultracentrifugation on a glycerol cushion + negative-stain TEM
[2] = biological target: hnRNPDL-2 D259N (LGMDD3-associated variant) (human) (UniProt O14979); experiment: as above
[3] = biological target: hnRNPDL-3 (human heterogeneous ribonucleoprotein D-like, isoform 3) (human) (UniProt O14979); experiment: SEC
[4] = biological target: hnRNPDL-3 (human heterogeneous ribonucleoprotein D-like, isoform 3) (human) (UniProt O14979); experiment: Th-T fluorescence + negative-stain TEM

binding [1]: binds weakly
B1: hnRNPDL-2 D259H (LGMDD3-associated variant) (protein, UniProt O14979-2 1-301)
chain: MEDMNEYSNIEEFAEGSKINASKNQQDDGKMFIGGLSWDTSKKDLTEYLSRFGEVVDCTIKTDPVTGRSRGFGFVLFKDAASVDKVLELKEHKLDGKLIDPKRAKALKGKEPPKKVFVGGLSPDTSEEQIKEYFGAFGEIENIELPMDTKTNERRGFCFITYTDEEPVKKLLESRYHQIGSGKCEIKVAQPKEVYRQQQQQQKGGRGAAAGGRGGTRGRGRGQGQNWNQGFNNYYDQGYGNYNSAYGGDQNYSGYGGYHYTGYNYGNYGYGQGYADYSGQQSTYGKASRGGGNHQNNYQPY

binding [2]: binds weakly
B2: hnRNPDL-2 D259N (LGMDD3-associated variant) (protein, UniProt O14979-2 1-301)
chain: MEDMNEYSNIEEFAEGSKINASKNQQDDGKMFIGGLSWDTSKKDLTEYLSRFGEVVDCTIKTDPVTGRSRGFGFVLFKDAASVDKVLELKEHKLDGKLIDPKRAKALKGKEPPKKVFVGGLSPDTSEEQIKEYFGAFGEIENIELPMDTKTNERRGFCFITYTDEEPVKKLLESRYHQIGSGKCEIKVAQPKEVYRQQQQQQKGGRGAAAGGRGGTRGRGRGQGQNWNQGFNNYYDQGYGNYNSAYGGDQNYSGYGGYNYTGYNYGNYGYGQGYADYSGQQSTYGKASRGGGNHQNNYQPY

binding [3]: no binding
binding [4]: no binding (tested: 50 µM)
B3: hnRNPDL-3 (human heterogeneous ribonucleoprotein D-like, isoform 3) (protein, UniProt O14979-3 1-244)
chain: MEDMNEYSNIEEFAEGSKINASKNQQDDGKMFIGGLSWDTSKKDLTEYLSRFGEVVDCTIKTDPVTGRSRGFGFVLFKDAASVDKVLELKEHKLDGKLIDPKRAKALKGKEPPKKVFVGGLSPDTSEEQIKEYFGAFGEIENIELPMDTKTNERRGFCFITYTDEEPVKKLLESRYHQIGSGKCEIKVAQPKEVYRQQQQQQKGGRGAAAGGRGGTRGRGRGQQSTYGKASRGGGNHQNNYQPY
